{
  "sequences": {"note": "The chains behind the UniProt entries cited, without tags or fusion partners. Where a name states a change or a piece, a line headed by the entry shows the natural chain unless it says otherwise.", "UniProt P41240": "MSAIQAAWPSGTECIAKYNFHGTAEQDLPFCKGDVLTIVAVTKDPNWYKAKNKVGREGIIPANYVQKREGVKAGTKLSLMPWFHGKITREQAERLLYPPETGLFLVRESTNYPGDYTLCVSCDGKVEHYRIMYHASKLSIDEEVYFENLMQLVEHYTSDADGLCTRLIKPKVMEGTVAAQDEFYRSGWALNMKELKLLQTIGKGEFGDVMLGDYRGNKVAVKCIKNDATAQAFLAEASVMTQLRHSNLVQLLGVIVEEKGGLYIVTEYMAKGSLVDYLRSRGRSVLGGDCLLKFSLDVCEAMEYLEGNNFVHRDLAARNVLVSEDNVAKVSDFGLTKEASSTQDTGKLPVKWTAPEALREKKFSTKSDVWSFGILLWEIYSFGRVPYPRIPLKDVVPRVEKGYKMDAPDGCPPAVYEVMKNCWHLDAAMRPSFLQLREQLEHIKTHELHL", "UniProt Q15208": "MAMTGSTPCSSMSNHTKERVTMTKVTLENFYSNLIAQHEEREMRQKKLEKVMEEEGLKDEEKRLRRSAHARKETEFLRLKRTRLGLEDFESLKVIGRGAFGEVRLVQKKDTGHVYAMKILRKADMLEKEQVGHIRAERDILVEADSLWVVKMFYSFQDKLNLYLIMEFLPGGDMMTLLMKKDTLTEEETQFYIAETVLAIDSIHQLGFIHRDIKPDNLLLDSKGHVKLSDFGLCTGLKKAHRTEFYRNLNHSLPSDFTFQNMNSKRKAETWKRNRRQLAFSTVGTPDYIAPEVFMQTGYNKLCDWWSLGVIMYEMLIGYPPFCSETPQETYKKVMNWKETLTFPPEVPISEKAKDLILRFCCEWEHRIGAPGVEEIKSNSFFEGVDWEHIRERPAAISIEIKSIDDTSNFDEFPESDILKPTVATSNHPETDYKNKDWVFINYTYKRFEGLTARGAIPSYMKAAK", "UniProt Q9NYA1, whole entry": "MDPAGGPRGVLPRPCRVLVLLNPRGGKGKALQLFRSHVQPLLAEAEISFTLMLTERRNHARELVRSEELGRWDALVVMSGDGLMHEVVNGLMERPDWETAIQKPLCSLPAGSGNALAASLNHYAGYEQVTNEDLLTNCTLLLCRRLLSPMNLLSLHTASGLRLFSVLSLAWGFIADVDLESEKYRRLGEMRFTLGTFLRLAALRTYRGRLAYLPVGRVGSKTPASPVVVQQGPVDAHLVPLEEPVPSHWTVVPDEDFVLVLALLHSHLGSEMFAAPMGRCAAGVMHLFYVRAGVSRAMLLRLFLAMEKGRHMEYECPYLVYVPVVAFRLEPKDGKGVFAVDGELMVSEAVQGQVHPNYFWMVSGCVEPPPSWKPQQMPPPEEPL", "UniProt P21860, whole entry": "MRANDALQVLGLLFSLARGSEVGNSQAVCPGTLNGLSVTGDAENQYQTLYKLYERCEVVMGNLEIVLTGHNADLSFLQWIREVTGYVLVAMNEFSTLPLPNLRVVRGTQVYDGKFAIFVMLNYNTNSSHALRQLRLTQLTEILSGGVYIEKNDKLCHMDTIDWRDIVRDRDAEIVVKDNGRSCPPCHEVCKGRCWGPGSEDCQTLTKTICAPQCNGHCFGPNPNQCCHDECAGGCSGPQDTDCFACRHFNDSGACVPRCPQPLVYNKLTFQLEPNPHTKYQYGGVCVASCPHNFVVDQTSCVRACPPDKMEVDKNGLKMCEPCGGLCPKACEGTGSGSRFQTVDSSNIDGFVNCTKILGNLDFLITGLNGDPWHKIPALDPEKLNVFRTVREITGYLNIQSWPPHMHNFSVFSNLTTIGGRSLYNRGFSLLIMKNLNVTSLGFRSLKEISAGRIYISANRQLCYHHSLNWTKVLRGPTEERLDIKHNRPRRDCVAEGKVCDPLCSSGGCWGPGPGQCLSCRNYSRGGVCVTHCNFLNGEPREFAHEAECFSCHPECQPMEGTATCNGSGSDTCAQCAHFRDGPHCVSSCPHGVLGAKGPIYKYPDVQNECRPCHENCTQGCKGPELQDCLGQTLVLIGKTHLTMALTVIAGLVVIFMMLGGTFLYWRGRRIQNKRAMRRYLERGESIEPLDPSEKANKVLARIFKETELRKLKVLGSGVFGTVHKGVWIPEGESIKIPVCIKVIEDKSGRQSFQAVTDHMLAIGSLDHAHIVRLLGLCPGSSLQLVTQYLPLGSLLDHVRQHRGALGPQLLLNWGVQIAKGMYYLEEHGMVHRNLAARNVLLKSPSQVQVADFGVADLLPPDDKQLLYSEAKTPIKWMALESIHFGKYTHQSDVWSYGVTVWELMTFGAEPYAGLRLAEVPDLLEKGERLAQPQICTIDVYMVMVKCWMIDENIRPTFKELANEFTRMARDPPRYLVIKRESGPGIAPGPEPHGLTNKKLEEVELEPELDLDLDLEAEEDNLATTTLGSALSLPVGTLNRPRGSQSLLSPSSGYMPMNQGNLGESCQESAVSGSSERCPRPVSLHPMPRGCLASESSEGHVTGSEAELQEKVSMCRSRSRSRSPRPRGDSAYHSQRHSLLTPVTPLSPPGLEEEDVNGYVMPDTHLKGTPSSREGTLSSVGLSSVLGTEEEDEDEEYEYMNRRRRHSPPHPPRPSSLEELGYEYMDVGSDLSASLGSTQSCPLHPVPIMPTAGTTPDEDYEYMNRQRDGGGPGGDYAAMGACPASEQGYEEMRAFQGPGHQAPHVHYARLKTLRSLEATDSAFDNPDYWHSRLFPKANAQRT", "UniProt P49840": "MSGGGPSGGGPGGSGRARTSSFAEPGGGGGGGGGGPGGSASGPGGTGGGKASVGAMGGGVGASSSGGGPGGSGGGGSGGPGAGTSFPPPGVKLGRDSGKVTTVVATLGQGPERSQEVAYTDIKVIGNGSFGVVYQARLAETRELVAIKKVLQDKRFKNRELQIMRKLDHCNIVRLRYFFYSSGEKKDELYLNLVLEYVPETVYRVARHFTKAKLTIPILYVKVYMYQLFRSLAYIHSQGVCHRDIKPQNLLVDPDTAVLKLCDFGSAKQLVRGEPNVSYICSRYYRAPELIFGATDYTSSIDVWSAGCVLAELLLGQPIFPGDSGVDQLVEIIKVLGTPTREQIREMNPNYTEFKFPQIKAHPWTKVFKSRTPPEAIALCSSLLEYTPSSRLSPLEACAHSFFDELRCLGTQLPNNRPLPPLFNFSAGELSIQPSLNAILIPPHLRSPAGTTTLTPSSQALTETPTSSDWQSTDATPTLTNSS", "UniProt P14616": "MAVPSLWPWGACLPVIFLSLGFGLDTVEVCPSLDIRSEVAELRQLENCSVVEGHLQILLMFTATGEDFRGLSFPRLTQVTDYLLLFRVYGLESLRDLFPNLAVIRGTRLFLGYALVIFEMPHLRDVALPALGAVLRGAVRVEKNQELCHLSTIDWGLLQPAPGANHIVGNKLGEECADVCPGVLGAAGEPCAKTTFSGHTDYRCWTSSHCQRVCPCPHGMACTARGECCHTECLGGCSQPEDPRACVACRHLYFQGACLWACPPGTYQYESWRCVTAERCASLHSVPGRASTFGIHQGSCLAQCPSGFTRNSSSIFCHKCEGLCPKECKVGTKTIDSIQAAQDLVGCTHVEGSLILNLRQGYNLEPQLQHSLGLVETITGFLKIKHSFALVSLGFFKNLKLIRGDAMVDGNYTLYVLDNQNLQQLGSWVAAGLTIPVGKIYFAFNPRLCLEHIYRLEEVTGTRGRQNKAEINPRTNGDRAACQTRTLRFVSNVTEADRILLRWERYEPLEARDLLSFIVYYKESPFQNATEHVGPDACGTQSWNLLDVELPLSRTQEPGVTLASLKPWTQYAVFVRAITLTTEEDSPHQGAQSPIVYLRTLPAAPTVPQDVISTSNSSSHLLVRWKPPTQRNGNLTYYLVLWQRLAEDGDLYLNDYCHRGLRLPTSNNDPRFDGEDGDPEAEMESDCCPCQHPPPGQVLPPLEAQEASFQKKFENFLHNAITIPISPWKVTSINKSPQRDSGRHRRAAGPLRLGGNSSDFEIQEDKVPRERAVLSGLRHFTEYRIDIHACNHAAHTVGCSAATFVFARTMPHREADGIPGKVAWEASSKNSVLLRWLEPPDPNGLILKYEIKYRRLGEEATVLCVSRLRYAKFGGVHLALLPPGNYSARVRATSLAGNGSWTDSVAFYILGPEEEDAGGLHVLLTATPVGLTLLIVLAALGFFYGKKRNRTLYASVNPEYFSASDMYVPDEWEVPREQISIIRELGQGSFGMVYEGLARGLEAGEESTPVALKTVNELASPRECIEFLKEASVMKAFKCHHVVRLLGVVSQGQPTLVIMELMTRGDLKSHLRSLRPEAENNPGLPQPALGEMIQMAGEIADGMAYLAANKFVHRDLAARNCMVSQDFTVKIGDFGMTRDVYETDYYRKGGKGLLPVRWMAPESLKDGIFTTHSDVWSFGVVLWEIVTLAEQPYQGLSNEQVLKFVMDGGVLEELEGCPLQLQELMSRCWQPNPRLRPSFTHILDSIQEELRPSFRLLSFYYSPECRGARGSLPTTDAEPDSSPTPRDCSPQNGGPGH", "UniProt Q9UBF8": "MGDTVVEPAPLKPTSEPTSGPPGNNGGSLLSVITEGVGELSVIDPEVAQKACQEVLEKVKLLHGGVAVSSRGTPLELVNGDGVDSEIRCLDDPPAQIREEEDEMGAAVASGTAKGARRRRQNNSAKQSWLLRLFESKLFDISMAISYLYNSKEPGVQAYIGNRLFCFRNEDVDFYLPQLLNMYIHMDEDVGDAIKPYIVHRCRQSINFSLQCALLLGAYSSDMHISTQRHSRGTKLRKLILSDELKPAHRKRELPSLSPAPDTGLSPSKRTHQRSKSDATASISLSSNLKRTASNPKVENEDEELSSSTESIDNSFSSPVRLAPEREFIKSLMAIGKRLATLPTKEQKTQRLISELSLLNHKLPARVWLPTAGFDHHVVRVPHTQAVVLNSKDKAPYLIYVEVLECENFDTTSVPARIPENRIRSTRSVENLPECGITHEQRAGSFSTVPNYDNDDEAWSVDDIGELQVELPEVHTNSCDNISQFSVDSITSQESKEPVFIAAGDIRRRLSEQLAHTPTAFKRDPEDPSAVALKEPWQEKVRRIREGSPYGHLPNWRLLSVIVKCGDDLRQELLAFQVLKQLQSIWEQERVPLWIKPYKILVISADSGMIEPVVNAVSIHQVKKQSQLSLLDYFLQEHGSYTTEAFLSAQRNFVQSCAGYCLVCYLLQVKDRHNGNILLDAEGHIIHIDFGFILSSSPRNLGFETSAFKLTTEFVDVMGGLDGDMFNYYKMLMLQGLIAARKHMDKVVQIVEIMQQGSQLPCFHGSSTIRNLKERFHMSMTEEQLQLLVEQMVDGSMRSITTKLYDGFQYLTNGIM", "UniProt P36888, whole entry": "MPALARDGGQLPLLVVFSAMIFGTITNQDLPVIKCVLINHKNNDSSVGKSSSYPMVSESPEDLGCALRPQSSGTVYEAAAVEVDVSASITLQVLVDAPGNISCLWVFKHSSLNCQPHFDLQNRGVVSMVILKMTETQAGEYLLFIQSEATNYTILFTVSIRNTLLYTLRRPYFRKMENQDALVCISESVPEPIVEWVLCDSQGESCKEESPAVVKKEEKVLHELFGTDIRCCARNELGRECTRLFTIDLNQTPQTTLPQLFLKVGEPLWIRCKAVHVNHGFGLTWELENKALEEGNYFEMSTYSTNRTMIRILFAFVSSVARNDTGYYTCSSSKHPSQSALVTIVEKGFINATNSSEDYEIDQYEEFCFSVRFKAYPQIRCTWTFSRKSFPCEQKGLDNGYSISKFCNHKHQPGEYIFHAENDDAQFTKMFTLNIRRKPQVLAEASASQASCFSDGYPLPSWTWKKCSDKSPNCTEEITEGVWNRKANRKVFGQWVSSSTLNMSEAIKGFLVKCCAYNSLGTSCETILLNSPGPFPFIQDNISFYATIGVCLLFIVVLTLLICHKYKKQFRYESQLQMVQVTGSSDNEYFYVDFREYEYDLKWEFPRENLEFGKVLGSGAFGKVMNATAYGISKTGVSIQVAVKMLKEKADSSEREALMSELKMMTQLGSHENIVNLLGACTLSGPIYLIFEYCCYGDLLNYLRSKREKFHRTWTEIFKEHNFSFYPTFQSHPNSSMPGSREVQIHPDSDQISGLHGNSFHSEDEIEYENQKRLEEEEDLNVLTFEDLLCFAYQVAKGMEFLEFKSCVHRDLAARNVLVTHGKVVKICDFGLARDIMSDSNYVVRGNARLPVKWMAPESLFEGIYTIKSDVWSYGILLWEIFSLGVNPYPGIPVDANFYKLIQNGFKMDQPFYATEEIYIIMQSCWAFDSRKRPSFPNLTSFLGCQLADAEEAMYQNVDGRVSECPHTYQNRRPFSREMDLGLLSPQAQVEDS", "UniProt Q9UQB9": "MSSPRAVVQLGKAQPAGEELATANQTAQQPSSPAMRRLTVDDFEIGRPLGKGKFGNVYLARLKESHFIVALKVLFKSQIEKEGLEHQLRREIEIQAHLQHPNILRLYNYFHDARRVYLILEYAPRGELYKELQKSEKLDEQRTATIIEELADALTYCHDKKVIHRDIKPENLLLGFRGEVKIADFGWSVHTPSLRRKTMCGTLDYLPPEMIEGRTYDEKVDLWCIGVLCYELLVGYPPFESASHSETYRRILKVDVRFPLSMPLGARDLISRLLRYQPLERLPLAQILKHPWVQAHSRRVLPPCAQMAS"},
  "source": "the supplement of paper PMC12823440",
  "about": "“Inhibitors supercharge kinase turnover through native proteolytic circuits” (Nature, 2025)",
  "note": "The list shows a part of the results. Hit calls seldom repeat between salt and free forms of one compound.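 Kinases were expressed as nanoluciferase fusions in K562 cells and luminescence was read every 4 h between 2 and 18 h as percent of control, DMSO set to 100% and a positive control to 0%. A time point counts as decreased when the signal drops significantly (2 sigma). The hit call is the authors' own, does not follow from the count of time points alone, and its rule is not shown.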",
  "data": [
    {"compound": "CC1(C)C(=O)N([C@H]2CCc3c(O)cccc32)c2nc(Nc3cccc(CN4CCCC4)c3)ncc21", "experiment": "number of time points (of 5) at which kinase-Nluc abundance scored as decreased, DMSO-normalised (count); higher = more persistent destabilization", "conditions": "2.5 µM; K562; 2-18 h", "values": [
      {"target": "FGR (UniProt P09769)", "number of time points": 0},
      {"target": "PTK2B (UniProt Q14289)", "number of time points": 2},
      {"target": "LMTK2 (UniProt Q8IWU2)", "number of time points": 4},
      {"target": "CSK (UniProt P41240)", "number of time points": 0},
      {"target": "STK38 (UniProt Q15208)", "number of time points": 0},
      {"target": "ZAP70 (UniProt P43403)", "number of time points": 0},
      {"target": "SYK (UniProt P43405)", "number of time points": 0},
      {"target": "RIPK2 (UniProt O43353)", "number of time points": 0},
      {"target": "SPHK1 (UniProt Q9NYA1)", "number of time points": 0},
      {"target": "ERBB3 (UniProt P21860)", "number of time points": 3},
      {"target": "PAK4 (UniProt O96013)", "number of time points": 0},
      {"target": "GSK3A (UniProt P49840)", "number of time points": 0},
      {"target": "MAPK4 (UniProt P31152)", "number of time points": 0},
      {"target": "TYK2 (UniProt P29597)", "number of time points": 2},
      {"target": "EPHA2 (UniProt P29317)", "number of time points": 2},
      {"target": "DYRK2 (UniProt Q92630)", "number of time points": 4},
      {"target": "ARAF (UniProt P10398)", "number of time points": 0},
      {"target": "ROR2 (UniProt Q01974)", "number of time points": 0},
      {"target": "INSRR (UniProt P14616)", "number of time points": 4},
      {"target": "BRAF (UniProt P15056)", "number of time points": 1},
      {"target": "PIK4CB (UniProt Q9UBF8)", "number of time points": 3},
      {"target": "NTRK3 (UniProt Q16288)", "number of time points": 3},
      {"target": "CSNK1D (UniProt P48730)", "number of time points": 0},
      {"target": "PDK1 (UniProt Q15118)", "number of time points": 0},
      {"target": "CDK3 (UniProt Q00526)", "number of time points": 0},
      {"target": "MAP2K2 (UniProt P36507)", "number of time points": 0},
      {"target": "FLT3 (UniProt P36888)", "number of time points": 4},
      {"target": "AURKC (UniProt Q9UQB9)", "number of time points": 0},
      {"target": "PLK1 (UniProt P53350)", "number of time points": 0},
      {"target": "STK24 (UniProt Q9Y6E0)", "number of time points": 0}
    ]},
    {"compound": "CC1(C)CNc2cc(NC(=O)c3cccnc3NCc3ccncc3)ccc21 [Motesanib (Diphosphate)]", "experiment": "number of time points (of 5) at which kinase-Nluc abundance scored as decreased, DMSO-normalised (count); higher = more persistent destabilization", "conditions": "2.5 µM; K562; 2-18 h", "values": [
      {"target": "FGR (UniProt P09769)", "number of time points": 0},
      {"target": "PTK2B (UniProt Q14289)", "number of time points": 0},
      {"target": "LMTK2 (UniProt Q8IWU2)", "number of time points": 0},
      {"target": "CSK (UniProt P41240)", "number of time points": 0},
      {"target": "STK38 (UniProt Q15208)", "number of time points": 0},
      {"target": "ZAP70 (UniProt P43403)", "number of time points": 0},
      {"target": "SYK (UniProt P43405)", "number of time points": 0},
      {"target": "RIPK2 (UniProt O43353)", "number of time points": 0},
      {"target": "SPHK1 (UniProt Q9NYA1)", "number of time points": 0},
      {"target": "ERBB3 (UniProt P21860)", "number of time points": 0},
      {"target": "PAK4 (UniProt O96013)", "number of time points": 0},
      {"target": "NTRK2 (UniProt Q16620)", "number of time points": 0},
      {"target": "GSK3A (UniProt P49840)", "number of time points": 0},
      {"target": "MAPK4 (UniProt P31152)", "number of time points": 0},
      {"target": "TYK2 (UniProt P29597)", "number of time points": 0},
      {"target": "EPHA2 (UniProt P29317)", "number of time points": 0},
      {"target": "DYRK2 (UniProt Q92630)", "number of time points": 0},
      {"target": "ARAF (UniProt P10398)", "number of time points": 0},
      {"target": "ROR2 (UniProt Q01974)", "number of time points": 0},
      {"target": "PRKAA1 (UniProt Q13131)", "number of time points": 0},
      {"target": "INSRR (UniProt P14616)", "number of time points": 0},
      {"target": "PIK4CB (UniProt Q9UBF8)", "number of time points": 0},
      {"target": "NTRK3 (UniProt Q16288)", "number of time points": 0},
      {"target": "CSNK1D (UniProt P48730)", "number of time points": 0},
      {"target": "PDK1 (UniProt Q15118)", "number of time points": 0},
      {"target": "CDK3 (UniProt Q00526)", "number of time points": 0},
      {"target": "MAP2K2 (UniProt P36507)", "number of time points": 0},
      {"target": "FLT3 (UniProt P36888)", "number of time points": 0},
      {"target": "AURKC (UniProt Q9UQB9)", "number of time points": 0},
      {"target": "PLK1 (UniProt P53350)", "number of time points": 0},
      {"target": "STK24 (UniProt Q9Y6E0)", "number of time points": 0}
    ]}
  ]
}
